Results from paper PMC12548414.
About 20 (1%) of roughly 1,600 compounds showed an effect of 50% or more. Some of the results follow.

The compounds below were run on T1, E. coli pLC1021 (luc-trpAt trans-translation reporter). Conditions: reporter signal, KKL-35 = 100%; rise means trans-translation inhibition; 2 h, 20 µM.
T1 construct: pLC1021 luc-trpAt reporter strain
Set-up: species or system Escherichia coli pLC1021; luc-trpAt non-stop luciferase reporter; luminescence rises when trans-translation is inhibited; normalized to KKL-35 and DMSO
Procedure, shortened: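 Cells carrying the non-stop luc-trpAt reporter were exposed to 20 µM compound for 2 h at room temperature, then Bright-Glo was added and luminescence read at 560 nm after 10 min. Signals were normalised per plate to DMSO and 20 µM KKL-35 wells. Hits: activity one SD above the median; ≥2 biological repeats averaged.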

Structure (SMILES)	% activation [%]
O=C(NC(=S)N1CCN(C/C=C/c2ccccc2)CC1)c1ccc(Cl)cc1 [KKL-0599]	33
O=C(NC(=S)N1CCCCCC1)c1ccc([N+](=O)[O-])cc1 [KKL-1266]	18
CCOC(=O)COc1ccc(-c2ccc(C)cc2)cc1 [KKL-1287]	0
COc1ccccc1C1(O)CCN(Cc2cnn(-c3ccc(C)cc3)c2)CC1 [KKL-0553]	7
Cc1ccc(C)c(N=Nc2nc3ccccc3n2C)c1 [KKL-0971]	0
CCc1ccc(Oc2coc3cc(OC(C)C(=O)OC)ccc3c2=O)cc1 (stereo not drawn) [KKL-0739]	3
CC(C)(C)C(=O)NC(=S)NNC(=O)C(c1ccccc1)c1ccccc1 [KKL-1073]	16
Cn1c(COc2cccc3ccccc23)nnc1SCC(=O)OC1CCCCC1 [KKL-1623]	1
CC(C)c1ccc(-c2cncc(N3CCN(c4ccncc4)CC3)n2)cc1 [KKL-1773]	3
CN(c1ccccc1)c1ccc([N+](=O)[O-])c2nonc12 [KKL-1467]	0
Cc1cccc(OCC(O)Cn2c(=N)n(CCN3CCCCC3)c3ccccc32)c1 (stereo not drawn) [KKL-1515]	16
Cc1cc2c(cc1C)N(Cc1ccc(C(C)(C)C)cc1)C1=NCCCN12 [KKL-0358]	0
COc1cc(SC)ccc1C(=O)N[C@H]1CCN2C(=O)N(c3ccc(Cl)cc3)C(=O)[C@@H]2C1 [KKL-1611]	0
c1ccc(-c2nc3c(c(N4CCN(Cc5cc6ccccc6[nH]5)CC4)n2)CCC3)cc1 [KKL-0483]	0
CCCCCCCCCn1c2c(c(=N)c3c1CCC3)CCCC2 [KKL-0894]	7
COc1cc(CNC23CC4CC(CC(C4)C2)C3)ccc1OCc1ccccc1 [KKL-0755]	4
COc1ccc(CN(CCCn2ccnc2)Cc2[nH]c3ccc(F)cc3c2C)cc1 [KKL-1036]	17
CCOC(=O)c1cc(-c2ccccc2)sc1N=C(S)NC(C)c1ccncc1 (stereo not drawn) [KKL-1534]	0
CC(C)N(C(=O)CNc1ccccc1Nc1ccccc1)c1ccccc1 [KKL-1812]	1
Nc1ccccc1Nc1ccc2c(c1)OCO2 [KKL-1857]	2
CC(C)Cc1cc(C(=O)N2CCc3c([nH]c4ccccc34)C2c2ccccc2F)nc(N)n1 (stereo not drawn) [KKL-0668]	0

Structure (SMILES)	% activation [%]
COC(=O)[C@@H]1Cc2c([nH]c3ccccc23)[C@H]2C[C@@H](N3CCOCC3)C[C@@H](c3ccc(OC(F)(F)F)cc3)N21 [KKL-0313]	4
COC(=O)COc1cccc(NC(=O)c2ccc(Cl)cc2)c1 [KKL-1563]	7
O=[N+]([O-])c1cc(O)c2ncccc2c1 [KKL-0003]	46
COC(=O)C(Oc1ccc2c(c1)oc(=O)c1cc(OC)ccc12)c1ccccc1 (stereo not drawn) [KKL-1506]	0
CCn1cc(C(=O)O)c(=O)c2cc(F)c(N3CCNCC3)cc21 [KKL-0831]	56
CSCCCNC(=O)C1CCN(c2nc(-c3ccccc3)nc3c2CCC3)CC1 [KKL-0658]	2
C=CCOc1ccccc1NC(=O)c1cnc(SC)nc1 [KKL-0671]	0
CC(C)OC(=O)COc1ccc(-c2cnc(N(C)CCc3ccncc3)nc2)cc1 [KKL-1723]	3
Cc1ccc(CN(CCCn2ccnc2)Cc2ccc(Cl)c(Cl)c2)o1 [KKL-1222]	14
O=C(CC1Sc2ccc(Cl)cc2NC1=O)Nc1ccc([N+](=O)[O-])cc1 (stereo not drawn) [KKL-0720]	15
COc1ccc(CC(=O)Nc2c(-c3cccs3)nc3cc(C)ccn23)cc1 [KKL-1805]	0
O=C(CC(O)(C(F)(F)F)C(F)(F)F)Nc1ccc(Cl)c(Cl)c1 [KKL-0624]	36
Cc1ccc(C(=O)/C=C\C(=O)c2ccc(C)cc2)cc1 [KKL-1050]	0
CC(=O)Nc1nc(NC(=O)/C=C/c2ccccc2)n(-c2ccccc2)n1 [KKL-1060]	18
O=c1cc(-c2c(F)c(F)c(F)c(F)c2F)oc2ccccc12 [KKL-0844]	0
COc1ccccc1OCCCCn1c(C2CC2)nc2ccccc21 [KKL-1722]	5
CCCCc1cc(=O)oc2cc(OCC(=O)OCc3ccccc3)c(Cl)cc12 [KKL-0718]	0
COc1cc(C)c(-c2csc(NC(=O)c3cnc(SC)nc3)n2)cc1C [KKL-0466]	0
COc1cc(/C=C/C(=O)c2ccc(F)cc2)cc(OC)c1OC [KKL-1090]	0
O=C1C(O)=C(c2ccccc2)C2CCCN12 (stereo not drawn) [KKL-1601]	0
CCOC(=O)COc1ccc(C(=O)NC2CCCCC2)cc1 [KKL-1468]	1

Structure (SMILES)	% activation [%]
Cc1cccc(-c2cc3ncccc3c(NCc3ccccn3)n2)c1 [KKL-0684]	0
CCOC(=O)c1c(NC(=O)COc2ccc(C(C)C)cc2)sc2c1CCC2 [KKL-1530]	0
Cc1cc2nc(C3CCCN(C(=O)c4[nH]c5ccccc5c4C)C3)cc(C(F)(F)F)n2n1 (stereo not drawn) [KKL-0511]	0
Cc1cc(C)n2nc(C(=O)N3CCc4c([nH]c5ccccc45)C3c3ccc(F)cc3)cc2n1 (stereo not drawn) [KKL-1149]	3
COc1ccc(CN2CCCCC2C(=O)Nc2ccc(-n3cccn3)cc2)c(F)c1 (stereo not drawn) [KKL-1153]	0
CCC(C)NCCCOc1ccc(Cl)c2ccccc12 (stereo not drawn) [KKL-1428]	0
O=C(NC1CCCCC1)c1cccc(N2C(=O)c3cccc4c([N+](=O)[O-])ccc(c34)C2=O)c1 [KKL-1416]	0
CC12CC3CC(C)(C1)CC(C(=O)Nc1nc4ccccc4s1)(C3)C2 [KKL-1343]	2
Cc1cc2c(cc1C)C(O)CC1(CCN(CC(O)c3ccc4c(c3)CCC4)CC1)O2 (stereo not drawn) [KKL-0699]	0
Cc1nn(-c2ccccc2)c2nc(O)c(CNC(c3ccccc3)c3ccco3)cc12 (stereo not drawn) [KKL-0350]	0
COC(=O)[C@@H]1Cc2c([nH]c3ccccc23)[C@H]2C[C@H](NCCN3CCOCC3)C[C@@H](c3ccc(OC(F)(F)F)cc3)N21 [KKL-0308]	6
Cc1ccc(NC(=O)CC2COc3ccccc3O2)cc1Cl (stereo not drawn) [KKL-1586]	0
c1ccc(-c2csc(Nc3nc4cc5c(cc4s3)OCO5)n2)nc1 [KKL-1697]	0
O=C(Nc1nc2ccc(F)cc2s1)c1ccccn1 [KKL-0813]	0
O=C(Nc1cccc([N+](=O)[O-])c1)Nc1ccc(Cl)c(C(F)(F)F)c1 [KKL-1336]	0
O=C(/C=C/c1cn(CC(O)CN2CCCCCC2)c2ccccc12)c1cccs1 (stereo not drawn) [KKL-0443]	0
CCOC(=O)COc1ccc2cc(-c3nc4ccccc4s3)c(=O)oc2c1 [KKL-0772]	2
Cc1ccn2c(Nc3ccccc3)c(-c3ccccn3)nc2c1 [KKL-1521]	0
COc1ccc(C(=O)CCN2CCCC(C)C2)cc1 (stereo not drawn) [KKL-1093]	9
Cc1cccc2sc(NC(=O)c3ccc(C(C)(C)C)cc3)nc12 [KKL-1490]	2
FC(F)(F)c1nnc2ccc(Cl)nn12 [KKL-1868]	0

Structure (SMILES)	% activation [%]
CC(C)(C)c1cc(Cl)c(O)c(NC(=S)NC(=O)c2cccc3ccccc23)c1 [KKL-0905]	0
Cc1nn(-c2ccc(C(F)(F)F)cc2)c(C)c1[C@@H]1C=C[C@@H](NCc2ccc(N(C)C)cc2)C1 [KKL-0309]	0
CC(C)C(=O)N1CCN(c2ccc(NC(=O)c3ccc([N+](=O)[O-])o3)cc2)CC1 [KKL-1579]	0
Cc1cc2ncn(CC(O)COc3ccc(F)cc3)c2cc1C (stereo not drawn) [KKL-1261]	3
Fc1ccc(CNc2nc(-c3ccncc3)cc3ncccc23)cc1 [KKL-0447]	0
Cc1cccc(OC(C)C(=O)Nc2ccc([N+](=O)[O-])cc2)c1C (stereo not drawn) [KKL-1509]	4
CC(C)(C)c1ccc(OCC(=O)N2CCCC(c3cc4ncccc4cn3)C2)cc1 (stereo not drawn) [KKL-0502]	0
COc1cc(CNCc2ccccn2)ccc1OCc1ccc(Cl)cc1Cl [KKL-1663]	0
CC(C)(C)C(Cn1ccnc1)NCc1c[nH]nc1-c1ccc(-c2ccccc2)cc1 (stereo not drawn) [KKL-0347]	0
CC(C)COc1ccc(-c2nn(-c3ccccc3)cc2C(=O)Nc2nccs2)cc1 [KKL-0403]	5
COc1ccc(Nc2nc(NC3CCNC3)nc3cc[nH]c(=O)c23)cc1CC(=O)c1ccccc1 (stereo not drawn) [KKL-1883]	335
COc1cccc(Nc2c3c(nc4c(-c5ccccc5)c(C)nn24)CCC3)c1 [KKL-1020]	4
COc1ccc(-c2nsc(SCC(=O)N3CCCC3)n2)cc1 [KKL-1799]	1
Cc1cc(OCCCCn2ccnc2)ccc1C(C)C [KKL-0423]	8
Cc1cccc(C)c1OCC(=O)NN=Cc1ccc(O)c([N+](=O)[O-])c1 [KKL-1471]	8
Cc1ccc2nc(C(F)(F)F)c(C(=O)NCc3cccs3)n2c1 [KKL-1862]	0
Oc1ccccc1-c1n[nH]c(/C=C/c2ccc(Cl)cc2)n1 [KKL-1554]	0
Cc1sc(NC(=O)c2ccccc2OCCN(C)C)nc1-c1ccc(F)cc1 [KKL-0472]	0
COc1ccccc1C1(O)CCN(Cc2[nH]c3ccc(F)cc3c2C)CC1 [KKL-0469]	4
CCOC(=O)CCc1c(C)c(C#N)c2nc3ccccc3n2c1O [KKL-1420]	0
Cc1ccc(C(=O)N2CCN(c3ccc(NC(=O)COc4c(C)cc(C)cc4Br)cc3)CC2)cc1 [KKL-0398]	3

In the list so far, three contain a furan ring, fused or not.
Structure (SMILES)	% activation [%]
Cc1ccc(CN(CCCn2ccnc2)Cc2ccc(Cl)c(Cl)c2)o1 [KKL-1222]	14
Cc1nn(-c2ccccc2)c2nc(O)c(CNC(c3ccccc3)c3ccco3)cc12 (stereo not drawn) [KKL-0350]	0
CC(C)C(=O)N1CCN(c2ccc(NC(=O)c3ccc([N+](=O)[O-])o3)cc2)CC1 [KKL-1579]	0
